Test results reported in publication PMC2500188.
No constants are given. Whether binding was seen depends on the method and setting. A result given as binding can be weak or reduced; the word gives no strength. For some assays here: Where a sequence is shown, tags or fusion partners need not be part of it. For some assays here: In cells and extracts the contact can be indirect. Each block holds one molecule with its values, some of them ahead of it.

Sequences of proteins named here, by UniProt entry; tags and fusion partners are left off.
UniProt O97159: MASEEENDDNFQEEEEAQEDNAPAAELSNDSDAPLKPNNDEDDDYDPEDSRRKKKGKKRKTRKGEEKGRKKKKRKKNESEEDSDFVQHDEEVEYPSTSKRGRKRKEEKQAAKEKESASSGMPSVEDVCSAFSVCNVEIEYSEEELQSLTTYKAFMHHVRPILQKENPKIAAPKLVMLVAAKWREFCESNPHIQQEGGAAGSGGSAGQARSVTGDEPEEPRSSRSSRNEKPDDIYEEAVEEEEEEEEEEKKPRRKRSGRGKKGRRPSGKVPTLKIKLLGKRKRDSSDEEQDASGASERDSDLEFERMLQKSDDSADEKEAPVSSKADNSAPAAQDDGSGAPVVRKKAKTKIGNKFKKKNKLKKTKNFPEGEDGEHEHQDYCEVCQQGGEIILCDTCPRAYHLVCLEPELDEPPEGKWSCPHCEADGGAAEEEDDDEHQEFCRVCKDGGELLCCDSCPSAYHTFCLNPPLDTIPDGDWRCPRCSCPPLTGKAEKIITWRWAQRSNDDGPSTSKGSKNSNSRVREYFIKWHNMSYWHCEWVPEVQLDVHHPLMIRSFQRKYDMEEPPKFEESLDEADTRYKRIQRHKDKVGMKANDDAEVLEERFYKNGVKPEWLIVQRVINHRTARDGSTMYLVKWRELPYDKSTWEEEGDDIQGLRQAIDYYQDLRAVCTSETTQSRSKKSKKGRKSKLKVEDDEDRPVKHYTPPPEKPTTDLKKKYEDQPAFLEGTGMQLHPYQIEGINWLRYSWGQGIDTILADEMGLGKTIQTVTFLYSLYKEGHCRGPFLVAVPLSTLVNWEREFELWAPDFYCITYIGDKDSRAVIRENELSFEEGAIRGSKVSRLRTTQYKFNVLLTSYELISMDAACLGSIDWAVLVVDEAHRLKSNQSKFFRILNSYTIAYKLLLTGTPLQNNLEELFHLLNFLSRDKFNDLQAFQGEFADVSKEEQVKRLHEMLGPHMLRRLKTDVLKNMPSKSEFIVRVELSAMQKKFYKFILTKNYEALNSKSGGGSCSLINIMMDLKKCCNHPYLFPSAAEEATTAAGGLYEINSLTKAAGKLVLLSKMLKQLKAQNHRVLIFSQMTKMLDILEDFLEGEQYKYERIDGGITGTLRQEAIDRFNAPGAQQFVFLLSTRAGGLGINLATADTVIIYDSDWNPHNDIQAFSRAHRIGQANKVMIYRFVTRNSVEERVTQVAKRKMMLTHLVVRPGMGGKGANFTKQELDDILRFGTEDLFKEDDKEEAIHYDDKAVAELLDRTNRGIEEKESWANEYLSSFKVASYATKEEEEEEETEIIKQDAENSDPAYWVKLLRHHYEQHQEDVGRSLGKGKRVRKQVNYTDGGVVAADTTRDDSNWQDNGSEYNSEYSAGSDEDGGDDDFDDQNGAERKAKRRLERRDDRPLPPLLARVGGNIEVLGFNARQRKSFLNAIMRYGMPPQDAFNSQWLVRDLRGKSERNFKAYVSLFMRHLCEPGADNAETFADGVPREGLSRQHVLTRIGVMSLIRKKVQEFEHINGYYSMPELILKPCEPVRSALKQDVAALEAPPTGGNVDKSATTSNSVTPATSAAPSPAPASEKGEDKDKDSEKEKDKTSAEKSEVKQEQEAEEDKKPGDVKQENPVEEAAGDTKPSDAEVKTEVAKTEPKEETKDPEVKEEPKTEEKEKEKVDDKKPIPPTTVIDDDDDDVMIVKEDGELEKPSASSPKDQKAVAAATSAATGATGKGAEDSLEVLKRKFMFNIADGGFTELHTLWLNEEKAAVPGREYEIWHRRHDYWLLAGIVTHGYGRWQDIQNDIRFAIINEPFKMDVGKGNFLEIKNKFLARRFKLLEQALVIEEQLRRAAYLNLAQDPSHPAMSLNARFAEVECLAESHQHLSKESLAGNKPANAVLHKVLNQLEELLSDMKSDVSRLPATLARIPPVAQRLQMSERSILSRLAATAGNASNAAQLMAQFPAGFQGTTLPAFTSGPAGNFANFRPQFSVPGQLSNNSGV
UniProt Q94517: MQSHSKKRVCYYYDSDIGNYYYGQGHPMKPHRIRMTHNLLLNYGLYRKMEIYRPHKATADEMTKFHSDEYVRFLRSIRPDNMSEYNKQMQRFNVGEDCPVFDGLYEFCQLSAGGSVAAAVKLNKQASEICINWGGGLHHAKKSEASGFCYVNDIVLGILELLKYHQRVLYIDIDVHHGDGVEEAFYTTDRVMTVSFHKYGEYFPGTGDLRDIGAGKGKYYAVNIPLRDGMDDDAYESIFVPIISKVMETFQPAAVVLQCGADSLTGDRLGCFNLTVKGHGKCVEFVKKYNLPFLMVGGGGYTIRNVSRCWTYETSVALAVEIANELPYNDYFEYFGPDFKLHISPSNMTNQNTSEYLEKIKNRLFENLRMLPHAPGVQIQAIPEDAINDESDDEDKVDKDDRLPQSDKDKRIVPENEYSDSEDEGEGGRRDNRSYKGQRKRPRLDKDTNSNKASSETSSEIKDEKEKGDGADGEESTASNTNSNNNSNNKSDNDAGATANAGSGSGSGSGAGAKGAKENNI

Tests used:
[1] = biological target: Drosophila Smyd4 (dSmyd4), FLAG-tagged (Drosophila) (UniProt Q7JZG5); test: co-IP; S2 cells co-expressing dSmyd4-FLAG and an HA-tagged co-repressor component, lysed in IPB150 (20 mM Tris pH 8.0, 150 mM NaCl, 0.1% NP-40); anti-FLAG M2 sepharose 2 h at 4°C, FLAG peptide elution, anti-HA blot
[2] = biological target: GST fusion of amino acids 208-377 of dSmyd4 (GST-MYND) (Drosophila) (UniProt Q7JZG5); test: pull-down; 10 µg GST-MYND on glutathione sepharose with 20 µg purified his6-tagged HDAC in HisPDB (20 mM Tris pH 8.0, 150 mM NaCl, 50 mM KCl, 0.25% Triton X-100), 2 h at 4°C; anti-polyhis blot; both purified
[3] = biological target: GST fusion of amino acids 208-377 of dSmyd4 (GST-MYND) (Drosophila) (UniProt Q7JZG5); test: pull-down; 10 µg GST-MYND on glutathione sepharose with 35S-labelled in vitro translated protein in PDB (20 mM Tris pH 8.0, 200 mM NaCl, 50 mM KCl, 0.5% Triton X-100), 2 h at 4°C; autoradiography; only the target purified
[4] = biological target: Drosophila Smyd4 (dSmyd4), FLAG-tagged (Drosophila) (UniProt Q7JZG5); test: co-IP; S2 cells co-expressing dSmyd4-FLAG and HDAC-HA, lysed in IPB250 (20 mM Tris pH 8.0, 250 mM NaCl, 0.4% NP-40); anti-FLAG M2 sepharose 2 h at 4°C, FLAG peptide elution, anti-HA blot

binding [1]: no binding
Molecule: dMi2-HA (from UniProt O97159 1-1982)

binding [2]: binds
Molecule: recombinant dHDAC1-his6 (from UniProt Q94517 1-521)

binding [3]: binds
Molecule: in vitro translated radiolabelled dHDAC1 (from UniProt Q94517 1-521)

binding [4]: binds
Molecule: dHDAC1-HA (from UniProt Q94517 1-521)

binding [4]: binds
B1: dHDAC3-HA (protein, UniProt Q7KTS4 1-438)
chain: MTDRRVSYFYNADVGNFHYGAGHPMKPQRLAVTHSLVMNYGLHKKMKIYRPYKASAQDMLRFHSDEYIAYLQQVTPQNIQCNSVAYTKYLAHFSVGEDCPVFDGLFDFCAMYTGASLEGAQKLNHNHSDICINWSGGLHHAKKFEASGFCYVNDIVIGILELLKYHPRVLYIDIDVHHGDGVQEAFYLTDRVMTASFHKYGNYFFPGTGDMYEIGAESGRYYSVNVPLKEGIDDQSYFQVFKPIISAIMDFYRPTAIVLQCGADSLAGDRLGCFSLSTKGHGECVKFVKELNVPTLVVGGGGYTLRNVARCWTHETSLLVDQDIENDLPATEYYDFFAPDFTLHPEINSRQDNANSKQYLELIVKHVYENLKMCQHSPSVQMVQTPPDVDLEELRSNREEASDPDVRISVADEDKLVDAKNEFYDGDQDQDKPDSAES

binding [3]: binds
B2: in vitro translated radiolabelled dHDAC3 (protein, UniProt Q7KTS4 1-438)
chain: MTDRRVSYFYNADVGNFHYGAGHPMKPQRLAVTHSLVMNYGLHKKMKIYRPYKASAQDMLRFHSDEYIAYLQQVTPQNIQCNSVAYTKYLAHFSVGEDCPVFDGLFDFCAMYTGASLEGAQKLNHNHSDICINWSGGLHHAKKFEASGFCYVNDIVIGILELLKYHPRVLYIDIDVHHGDGVQEAFYLTDRVMTASFHKYGNYFFPGTGDMYEIGAESGRYYSVNVPLKEGIDDQSYFQVFKPIISAIMDFYRPTAIVLQCGADSLAGDRLGCFSLSTKGHGECVKFVKELNVPTLVVGGGGYTLRNVARCWTHETSLLVDQDIENDLPATEYYDFFAPDFTLHPEINSRQDNANSKQYLELIVKHVYENLKMCQHSPSVQMVQTPPDVDLEELRSNREEASDPDVRISVADEDKLVDAKNEFYDGDQDQDKPDSAES
modifications: 35S-labelled

binding [2]: binds
B3: recombinant dHDAC3-his6 (protein, UniProt Q7KTS4 1-438)
chain: MTDRRVSYFYNADVGNFHYGAGHPMKPQRLAVTHSLVMNYGLHKKMKIYRPYKASAQDMLRFHSDEYIAYLQQVTPQNIQCNSVAYTKYLAHFSVGEDCPVFDGLFDFCAMYTGASLEGAQKLNHNHSDICINWSGGLHHAKKFEASGFCYVNDIVIGILELLKYHPRVLYIDIDVHHGDGVQEAFYLTDRVMTASFHKYGNYFFPGTGDMYEIGAESGRYYSVNVPLKEGIDDQSYFQVFKPIISAIMDFYRPTAIVLQCGADSLAGDRLGCFSLSTKGHGECVKFVKELNVPTLVVGGGGYTLRNVARCWTHETSLLVDQDIENDLPATEYYDFFAPDFTLHPEINSRQDNANSKQYLELIVKHVYENLKMCQHSPSVQMVQTPPDVDLEELRSNREEASDPDVRISVADEDKLVDAKNEFYDGDQDQDKPDSAES

binding [1]: binds
B4: Ebi-HA (protein, UniProt Q95RJ9 1-700)
chain: MSFSSDEVNFLVYRYLQESGFLHSAYVFGIESHISQSNINGALVPPAALLTILQKGLLYTEVEWSVGEDGEVARPIEGLSLIDAVMPEVKPLKPIVKTEPGKPGAVDSSAPAGGNQNNNAKPEIKIEPGTGVAGSAGGNKIAGSTTGTSTPTDQSASEVDSSGNAANNAGGTYAGNNGAGGNQASTGGSNSTSTPAGGDLAAPGASQKKSQNSNEAGSSSSGNAGNANATSTDDAASSTSTNGNSSTSSSVEQPTSGLTPAGGTVSTSNPDAAASGGASTATGSKAPSGAVTIRVGAQGNNVQSGSSNAQSSAPSGTISSSTSGGAGTPAALVPMDIDENIEIPESKARVLRGHESEVFICAWNPSRDLLASGSGDSTARIWDMSDANTNSNQLVLRHCIQKGGAEVPSNKDVTSLDWNCDGSLLATGSYDGYARIWKTDGRLASTLGQHKGPIFALKWNKCGNYILSAGVDKTTIIWDASTGQCTQQFAFHSAPALDVDWQTNQAFASCSTDQRIHVCRLGVNEPIKTFKGHTNEVNAIKWCPQGQLLASCSDDMTLKIWSMNRDRCCHDLQAHSKEIYTIKWSPTGPGTNNPNTNLILASASFDSTVRLWDVERGSCIHTLTKHTEPVYSVAFSPDGKHLASGSFDKCVHIWSTQTGQLVHSYKGTGGIFEVCWNSKGTKVGASASDGSVFVLDLRKF
